# According to PubChem BioAssay AID2685 (National Center for Advancing Translational Sciences (NCATS), 2010):
# Among all 320,000 compounds or so, about 2,100 (0.66%) were called active. This list was built around the results that the source calls inconclusive (neither active nor inactive); the mix of calls is not that of the screen. Calls follow the shape of the dose curve; as a rule, active = well fitted inhibition curve with a large enough effect in the signal ratio, with a control signal flat (not every such curve was filed as active); inconclusive = small, poorly fitted or top-dose-only effect, or effect the other way, or a change in a side signal; inactive = flat fitted curve, though single readings scatter; the % refers to the signal ratio. Potencies of inconclusive entries are doubtful fits and often do not repeat.
# Test: qHTS Assay for Lipid Storage Modulators in Drosophila S3 Cells
# Conditions: BODIPY lipid droplet fluorescence, 18-24 h, cells fed with added oleic acid; lipid storage change, negative = inhibition: at 46.1 µM (top of the series) unless noted
# Method in brief: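 Drosophila S3 cells got compounds at several concentrations plus oleic acid (400 uM solution). Laser-scanning cytometry with 488 nm excitation read lipid droplets at 500-530 nm and cells at 575-640 nm. Percent activity was relative to 20 uM Triacsin C.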
# % is scaled to controls: 0 for no effect and ±100 for the full control effect; potency is read from the fitted curve at half-maximal effect.
Structure (SMILES),Potency,"lipid storage change, negative = inhibition"
COc1ccc(C(C(=O)NC2CCCC2)N(C(=O)c2ccoc2C)c2ccc(C)c(C)c2)cc1 (configuration not stated),"inconclusive: 20.6 µM [falling, single point]",
COc1ccccc1OCCn1cc(/C=N/NC(=O)c2ccncc2)c2ccccc21,,inconclusive: 17.9%
Nc1cccc2c(=O)c3ccccc3[nH]c12,,inconclusive: -100%
CC(=O)Nc1ccc(NC(=O)CSc2nnc(-c3ccc(NS(C)(=O)=O)cc3)n2C)cc1C,,inconclusive: -19.4% [at 9.22 µM]
COC(=O)c1cccc(Nc2nc3ccccc3nc2C)c1,"inconclusive: 29.1 µM [falling, single point]",
Cc1ccc(-c2nn(-c3ccccc3)cc2C(=O)N2CCN(C3CCS(=O)(=O)C3)CC2)cc1 (configuration not stated),,inconclusive: -12.4%
Cc1ccc(C)c(S(=O)(=O)N2CCN(C(=O)c3ccc(-n4cncn4)c([N+](=O)[O-])c3)CC2)c1,,inconclusive: -30.8%
Cc1nn(C)c(C)c1NC(=O)CC12CC3CC(CC(C3)C1)C2,,inconclusive: -20.4% [at 9.22 µM]
COc1ccccc1N1CCN(S(=O)(=O)c2ccc(-n3cnnn3)cc2)CC1,"inconclusive: 29.1 µM [falling, single point]",
CCOc1ccc(NC(=O)CN(C)C(=O)CN2C(=O)NC3(CCCC3)C2=O)cc1OCC,,inconclusive
N#Cc1cccc(NC(=O)COC(=O)Cn2nc(-c3ccccc3)oc2=O)c1,,inconclusive: 20.3%
COc1cccc(NC(=O)CN(C)CC(=O)Nc2ccc3c(c2)CCC3)c1,,inconclusive: 13.6%
O=C(Nc1ccccc1N(C(=O)c1ccco1)S(=O)(=O)c1cccs1)c1ccco1,,inconclusive: -21.7%
Cc1nn(-c2ccccc2Cl)c2sc(C(=O)Nc3nnc(C4CC4)s3)cc12,,inconclusive: -4.62%
COc1ccccc1-c1nc(-c2ccccc2)nc(N2CCN(C)CC2)c1C#N,"inconclusive: 18.4 µM [activator, single point]",
CCOC(=O)C(=O)CC(=O)c1ccc2c(c1)OCCO2,,inconclusive: 13.5%
COc1ccc(NC(=O)CCNC(=O)Cn2cnc3sc4c(c3c2=O)CCCC4)c(OC)c1,,inconclusive: 196%
CC(C)(C)c1nc(SCC(=O)Nc2ccc3c(c2)OCCO3)c2ccccc2n1,active: 18.4 µM,
O=C(NCCN1CCOCC1)c1ccc(CS(=O)(=O)c2ccc(Cl)cc2)o1,"inconclusive: 29.1 µM [activator, single point]",
Cc1ccccc1CN1CCCC(C(=O)Nc2ccccc2Oc2cccnc2)C1 (configuration not stated),"inconclusive: 6.51 µM [activator, single point]",
COc1ccc2c(=O)c(N3C(=O)c4ccccc4C3=O)coc2c1,"inconclusive: 0.13 µM [falling, partial curve, poor fit]",
CCC(c1nnc(SCC(=O)N2CC(=O)Nc3ccccc32)n1Cc1ccccc1)N(C)C (configuration not stated),,inconclusive: -15.9%
Cc1csc(CNc2ncnc3ccc(-c4ccc5c(c4)OCCO5)cc23)c1,,inconclusive: -37.6%
COc1ccc(/C=c2/sc3nc(-c4ccccc4)c(-c4ccccc4)n3c2=O)cc1,"inconclusive: 4.11 µM [falling, partial curve]",

Structure (SMILES),Potency,"lipid storage change, negative = inhibition"
CCc1cccc(CC)c1C(O)c1cccnc1 (configuration not stated),,inconclusive: 10.9%
CN1CCN(C(=S)c2cn(Cc3ccc(F)cc3)c3ccccc23)CC1,,inconclusive: -8.82%
C[N+]1(CC#CC(O)(c2ccccc2)c2ccccc2)CCCC1,,inconclusive: 11.7%
O=C(NCc1ccc2c(c1)OCO2)C1CCC(CNS(=O)(=O)c2cccc3nsnc23)CC1 (configuration not stated),,inconclusive: -0.282%
COc1ccccc1S(=O)(=O)Cc1ccc(C(=O)NC2CC2)o1,"inconclusive: 29.1 µM [activator, single point]",
CN1CCN(C(=O)c2cnn3c2NC(c2ccccc2)CC3C(F)(F)F)CC1 (configuration not stated),,inconclusive: -41.2% [cytotoxic] [at 0.369 µM]
O=C(/C=C/c1cn(-c2ccccc2)nc1-c1ccccc1)Nc1ccc(C(=O)O)cc1,,inconclusive: 8.1%
CCC(CC)NCc1ccc2c(c1)c1ccccc1n2CC,,inconclusive: -23.1%
Cc1cc(C)c(-c2csc(NC(=O)CCCc3nc4ccccc4c(=O)[nH]3)n2)c(C)c1,"inconclusive: 2.06 µM [activator, partial curve]",
N=C1SCC(=O)N1c1ncc(Cc2ccccc2Cl)s1,"inconclusive: 29.1 µM [falling, single point]",
COc1ccc(CCNC(=O)c2ccc3c(c2)NC(=O)C(CSCc2cc(C)ccc2C)N3)cc1OC (configuration not stated),active: 23.1 µM,
Oc1ccc2n[nH]nc2c1,,inconclusive: 5.75%
Cc1cc(C)c(S(=O)(=O)c2ccccc2C(=O)O)c(C)c1,,inconclusive: -9.49%
CCOC(=O)C(NCc1ccc2c(c1)OCO2)(NC(=O)CC)C(F)(F)F (configuration not stated),,inconclusive: 31.3%
COC(=O)C(Cc1ccc(OC(=O)c2ccccc2Cl)cc1)N1Cc2ccccc2C1=O (configuration not stated),,inconclusive: -34.8%
COc1ccc(/C(O)=C2/C(=O)C(=O)N(c3ncccn3)C2c2ccc(OC)c(OC)c2)cc1 (configuration not stated),,inconclusive: 21.2%
Cc1cccc(OCC(=O)OC(C)C(=O)Nc2ccc(Cl)cn2)c1 (configuration not stated),,inconclusive
Cc1c(C(=O)OCC2CCCO2)[nH]c2c1C(=O)CC(c1ccc(N(C)C)cc1)C2 (configuration not stated),,inconclusive: -9.63%
CCOc1cccc(C(=O)Nc2nnc(-c3cccs3)s2)c1,,inconclusive: -10.3%
COc1ccc(OC)c(C2c3[nH]c4ccccc4c3C[C@H]3C(=O)N(C4CC4)CC(=O)N23)c1 (some centres not stated),,inconclusive: 5.53%
COc1ccc(Cl)cc1N1C(=O)C2CCCN2C1c1ccc(F)c(F)c1 (configuration not stated),,inconclusive: -4.56% [at 9.22 µM]
CCOc1ccc(N(CC(=O)N2CCOCC2)S(=O)(=O)c2ccc(SC)cc2)cc1,,inconclusive: 79.2%
COc1ccc(OC)c(S(=O)(=O)N2CCC(C(=O)N3CCN(Cc4ccccc4)CC3)CC2)c1,active: 8.2 µM,

# Entries from the list above with a cyano group:
Structure (SMILES),Potency,"lipid storage change, negative = inhibition"
N#Cc1cccc(NC(=O)COC(=O)Cn2nc(-c3ccccc3)oc2=O)c1,,inconclusive: 20.3%
COc1ccccc1-c1nc(-c2ccccc2)nc(N2CCN(C)CC2)c1C#N,"inconclusive: 18.4 µM [activator, single point]",
